This note sets out measurements from patent US20230331865A1.

Results are given in words; binding and its absence hold for the method and conditions named. Some binding calls cover weakened binding; strength is not graded here.

Assay [1] has as its target T1, P40 biotin peptide (MS1891.2) (human).
T1 sequence (peptide, C-terminal amide (-NH2); biotin (position not stated)): MLYLENNAQTQFSEPQC
Description: ELISA on P40 biotin peptide MS1891.2, in duplicate. Background: ELISA stands for enzyme-linked immunosorbent assay.

Assay [2] shares this target. Nature of the assay: ELISA on P40 biotin peptide MS1891.2.

B1: recombinant rabbit monoclonal anti-human p40 antibody clone 15F11 (antibody, V domains shown)
VH: QSVEESGGRLVKPDESLTLTCTVSGFSLSSYGVTWVRQAPGKGLEWIGYISHITTTYYASWAKGRFTISKTSPTTVDLKMTSLTTEDTATYFCCRGQYGSGIIYALWGPGTLVTISS
VL: AQVLTQTPSPVSAAVGGTVTINCQASQSVYNNKNLAWYQQKPGQPPKLLIYYASTLASGVPSRFSGSGSGTQFTLTISGVQCDDAATYYCHGEFSCDSGDCSAFGGGTEVVVK
Turning to B1, the binding entry in assay [1] and in assay [2] was “binds” throughout.
